± gives the standard deviation of the averaged measurements. The reference is the same well before dosing, and untreated signal decays as well.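 Fibroblast labels name human fibroblasts: mostly primary ones from tissues such as uterus (C12385, HUF), lung (H6013), bone (Hs27A), adrenal (HADF) and skin (WS1), plus mammary HMF and breast cancer-associated Hs343T. The cancer cells are basal-like or mesenchymal-like triple-negative breast cancer lines. The paper calls a changed response a hit when it shifts by more than 3x the replicate standard deviation. The tissue of the other fibroblasts is not given here.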
Test system: Hs578T
Assay: relative JC-1 red fluorescence (viability) vs pre-drug, coculture with fibroblast (fraction); higher = more viable cancer cells
Experimental: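 JC-1 labelled TNBC cells cocultured 1:1 (1,500 cells each) with CellTrace Violet stained primary or stromal fibroblasts in 384-well plates in FluoroBrite medium, treated with one of 42 anticancer drugs at 0.1, 1, 10 or 100 uM. JC-1 red fluorescence (mitochondrial integrity in cancer cells only) was read by plate reader every 8 h for 72 h. Values are normalised to each well's pre-drug value. The stock of one drug was tenfold lower, so its dose labels may be too high.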

C#Cc1cccc(Nc2ncnc3cc(OCCOC)c(OCCOC)cc23)c1 [Erlotinib]
relative JC-1 red fluorescence
Conditions | 8 h | 16 h | 24 h | 32 h | 40 h | 48 h | 56 h | 64 h | 72 h
0.1 µM | 0.956 ± 0.037 | 0.842 ± 0.011 | 0.7679 ± 0.0072 | 0.718 ± 0.0095 | 0.648 ± 0.022 | 0.606 ± 0.024 | 0.569 ± 0.027 | 0.528 ± 0.026 | 0.508 ± 0.031
1 µM | 0.867 ± 0.034 | 0.799 ± 0.034 | 0.781 ± 0.022 | 0.7609 ± 0.0074 | 0.71 ± 0.0041 | 0.681 ± 0.01 | 0.675 ± 0.022 | 0.634 ± 0.02 | 0.621 ± 0.017

relative JC-1 red fluorescence
Conditions | 8 h | 16 h | 24 h | 32 h | 40 h | 48 h | 56 h | 64 h | 72 h
0.1 µM, coculture fibroblast: C12385 | 0.859 ± 0.013 | 0.738 ± 0.011 | 0.706 ± 0.024 | 0.645 ± 0.012 | 0.593 ± 0.022 | 0.57 ± 0.032 | 0.554 ± 0.032 | 0.55 ± 0.036 | 0.554 ± 0.039
0.1 µM, coculture fibroblast: H6013 | 0.895 ± 0.019 | 0.866 ± 0.018 | 0.8488 ± 0.006 | 0.848 ± 0.014 | 0.83 ± 0.021 | 0.818 ± 0.027 | 0.802 ± 0.027 | 0.81 ± 0.02 | 0.781 ± 0.024
0.1 µM, coculture fibroblast: H6019 | 0.793 ± 0.029 | 0.7078 ± 0.0035 | 0.69 ± 0.039 | 0.609 ± 0.046 | 0.575 ± 0.056 | 0.55 ± 0.058 | 0.52 ± 0.059 | 0.495 ± 0.066 | 0.467 ± 0.07
0.1 µM, coculture fibroblast: H6076 | 0.888 ± 0.056 | 0.812 ± 0.073 | 0.812 ± 0.091 | 0.831 ± 0.078 | 0.815 ± 0.082 | 0.842 ± 0.075 | 0.838 ± 0.058 | 0.857 ± 0.069 | 0.866 ± 0.068
0.1 µM, coculture fibroblast: H6231 | 0.893 ± 0.051 | 0.829 ± 0.056 | 0.7519 ± 0.0042 | 0.727 ± 0.01 | 0.673 ± 0.014 | 0.655 ± 0.023 | 0.611 ± 0.032 | 0.593 ± 0.037 | 0.57 ± 0.042
0.1 µM, coculture fibroblast: HADF | 0.908 ± 0.021 | 0.827 ± 0.025 | 0.765 ± 0.015 | 0.723 ± 0.016 | 0.686 ± 0.032 | 0.66 ± 0.027 | 0.624 ± 0.019 | 0.608 ± 0.018 | 0.585 ± 0.012
0.1 µM, coculture fibroblast: HCFa | 0.878 ± 0.04 | 0.813 ± 0.049 | 0.774 ± 0.083 | 0.745 ± 0.1 | 0.694 ± 0.12 | 0.675 ± 0.12 | 0.643 ± 0.13 | 0.634 ± 0.14 | 0.592 ± 0.13
0.1 µM, coculture fibroblast: HCPF | 0.958 ± 0.043 | 0.859 ± 0.078 | 0.799 ± 0.024 | 0.765 ± 0.0047 | 0.708 ± 0.0082 | 0.681 ± 0.02 | 0.658 ± 0.029 | 0.621 ± 0.033 | 0.609 ± 0.039
0.1 µM, coculture fibroblast: HHSteC | 0.904 ± 0.023 | 0.816 ± 0.01 | 0.7763 ± 0.0066 | 0.7395 ± 0.0053 | 0.683 ± 0.0071 | 0.646 ± 0.0069 | 0.612 ± 0.0048 | 0.5899 ± 0.0023 | 0.5521 ± 0.0037
0.1 µM, coculture fibroblast: HMF | 0.906 ± 0.029 | 0.802 ± 0.031 | 0.755 ± 0.042 | 0.736 ± 0.031 | 0.688 ± 0.024 | 0.659 ± 0.019 | 0.625 ± 0.0073 | 0.605 ± 0.0061 | 0.598 ± 0.011
0.1 µM, coculture fibroblast: HPFa | 0.924 ± 0.021 | 0.8187 ± 0.0081 | 0.776 ± 0.031 | 0.735 ± 0.058 | 0.701 ± 0.081 | 0.677 ± 0.076 | 0.636 ± 0.078 | 0.617 ± 0.087 | 0.572 ± 0.088
0.1 µM, coculture fibroblast: HUF | 0.858 ± 0.012 | 0.7201 ± 0.003 | 0.7 ± 0.012 | 0.604 ± 0.023 | 0.545 ± 0.036 | 0.518 ± 0.027 | 0.489 ± 0.031 | 0.481 ± 0.042 | 0.475 ± 0.047
0.1 µM, coculture fibroblast: Hs27A | 0.897 ± 0.017 | 0.858 ± 0.049 | 0.827 ± 0.055 | 0.783 ± 0.05 | 0.735 ± 0.039 | 0.715 ± 0.032 | 0.678 ± 0.022 | 0.663 ± 0.013 | 0.6127 ± 0.0012
0.1 µM, coculture fibroblast: Hs343T | 0.963 ± 0.035 | 0.828 ± 0.045 | 0.771 ± 0.013 | 0.743 ± 0.015 | 0.671 ± 0.038 | 0.64 ± 0.035 | 0.6 ± 0.057 | 0.583 ± 0.065 | 0.581 ± 0.088
0.1 µM, coculture fibroblast: WS1 | 0.864 ± 0.012 | 0.738 ± 0.021 | 0.715 ± 0.014 | 0.6345 ± 0.0056 | 0.59 ± 0.012 | 0.581 ± 0.031 | 0.572 ± 0.039 | 0.584 ± 0.039 | 0.589 ± 0.049
1 µM, coculture fibroblast: C12385 | 0.825 ± 0.068 | 0.777 ± 0.047 | 0.722 ± 0.026 | 0.668 ± 0.032 | 0.616 ± 0.021 | 0.593 ± 0.015 | 0.578 ± 0.0094 | 0.56 ± 0.011 | 0.5582 ± 0.00094
1 µM, coculture fibroblast: H6013 | 0.8663 ± 0.0021 | 0.853 ± 0.0082 | 0.83831 ± 0.00053 | 0.839 ± 0.02 | 0.829 ± 0.023 | 0.826 ± 0.031 | 0.817 ± 0.04 | 0.817 ± 0.041 | 0.791 ± 0.036
1 µM, coculture fibroblast: H6019 | 0.794 ± 0.022 | 0.739 ± 0.023 | 0.734 ± 0.014 | 0.676 ± 0.015 | 0.6524 ± 0.005 | 0.628 ± 0.0063 | 0.6049 ± 0.0023 | 0.581 ± 0.0063 | 0.55 ± 0.0074
1 µM, coculture fibroblast: H6076 | 0.901 ± 0.064 | 0.869 ± 0.074 | 0.828 ± 0.038 | 0.815 ± 0.026 | 0.78 ± 0.016 | 0.7728 ± 0.0013 | 0.759 ± 0.0074 | 0.739 ± 0.017 | 0.74 ± 0.027
1 µM, coculture fibroblast: H6231 | 0.891 ± 0.026 | 0.828 ± 0.027 | 0.8282 ± 0.0024 | 0.797 ± 0.01 | 0.742 ± 0.023 | 0.732 ± 0.026 | 0.705 ± 0.029 | 0.689 ± 0.025 | 0.679 ± 0.02
1 µM, coculture fibroblast: HADF | 0.884 ± 0.052 | 0.861 ± 0.038 | 0.835 ± 0.031 | 0.814 ± 0.035 | 0.801 ± 0.025 | 0.796 ± 0.015 | 0.7729 ± 0.0033 | 0.7776 ± 0.0012 | 0.768 ± 0.0079
1 µM, coculture fibroblast: HCFa | 0.87 ± 0.013 | 0.855 ± 0.022 | 0.823 ± 0.038 | 0.799 ± 0.05 | 0.759 ± 0.054 | 0.743 ± 0.052 | 0.714 ± 0.059 | 0.695 ± 0.069 | 0.662 ± 0.073
1 µM, coculture fibroblast: HCPF | 0.88 ± 0.021 | 0.831 ± 0.041 | 0.819 ± 0.022 | 0.7827 ± 0.0055 | 0.72869 ± 0.00042 | 0.699 ± 0.007 | 0.6918 ± 0.0014 | 0.6567 ± 0.00079 | 0.6421 ± 0.0047
1 µM, coculture fibroblast: HHSteC | 0.8825 ± 0.0076 | 0.8463 ± 0.0049 | 0.822 ± 0.014 | 0.798 ± 0.015 | 0.768 ± 0.014 | 0.751 ± 0.011 | 0.725 ± 0.0076 | 0.705 ± 0.014 | 0.669 ± 0.018
1 µM, coculture fibroblast: HMF | 0.896 ± 0.011 | 0.85 ± 0.012 | 0.821 ± 0.027 | 0.796 ± 0.045 | 0.744 ± 0.05 | 0.724 ± 0.043 | 0.703 ± 0.048 | 0.67 ± 0.056 | 0.662 ± 0.063
1 µM, coculture fibroblast: HPFa | 0.933 ± 0.04 | 0.89 ± 0.079 | 0.865 ± 0.11 | 0.85 ± 0.14 | 0.832 ± 0.18 | 0.817 ± 0.2 | 0.797 ± 0.22 | 0.785 ± 0.25 | 0.756 ± 0.27
1 µM, coculture fibroblast: HUF | 0.863 ± 0.0095 | 0.782 ± 0.028 | 0.765 ± 0.028 | 0.697 ± 0.05 | 0.638 ± 0.039 | 0.609 ± 0.038 | 0.576 ± 0.041 | 0.562 ± 0.042 | 0.551 ± 0.047
1 µM, coculture fibroblast: Hs27A | 0.898 ± 0.01 | 0.876 ± 0.015 | 0.88 ± 0.024 | 0.874 ± 0.036 | 0.846 ± 0.063 | 0.84 ± 0.061 | 0.8 ± 0.076 | 0.808 ± 0.079 | 0.755 ± 0.08
1 µM, coculture fibroblast: Hs343T | 0.908 ± 0.014 | 0.8272 ± 0.0011 | 0.812 ± 0.025 | 0.796 ± 0.033 | 0.738 ± 0.064 | 0.728 ± 0.072 | 0.71 ± 0.077 | 0.691 ± 0.076 | 0.696 ± 0.086
1 µM, coculture fibroblast: WS1 | 0.8088 ± 0.0077 | 0.7591 ± 0.00021 | 0.7491 ± 0.0035 | 0.696 ± 0.01 | 0.663 ± 0.017 | 0.665 ± 0.015 | 0.648 ± 0.015 | 0.64 ± 0.016 | 0.644 ± 0.015

From the supplement of paper PMC6078165
